Source: the supplement of paper PMC12067093, “Discovery and optimisation of a covalent ligand for TRIM25 and its application to targeted protein ubiquitination” (Chemical Science, 2025)
The list shows a part of the results.

The chains behind the UniProt entries cited, without tags or fusion partners. Where a name states a change or a piece, a line headed by the entry shows the natural chain unless it says otherwise.
UniProt Q9NT62, whole entry, looked up: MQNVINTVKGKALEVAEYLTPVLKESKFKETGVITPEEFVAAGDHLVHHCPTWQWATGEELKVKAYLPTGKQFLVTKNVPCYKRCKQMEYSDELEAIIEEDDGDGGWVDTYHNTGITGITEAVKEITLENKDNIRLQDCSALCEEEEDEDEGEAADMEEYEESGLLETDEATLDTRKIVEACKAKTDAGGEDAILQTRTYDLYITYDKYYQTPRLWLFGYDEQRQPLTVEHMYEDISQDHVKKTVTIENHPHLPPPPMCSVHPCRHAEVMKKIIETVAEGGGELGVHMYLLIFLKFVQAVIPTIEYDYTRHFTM
UniProt P16615: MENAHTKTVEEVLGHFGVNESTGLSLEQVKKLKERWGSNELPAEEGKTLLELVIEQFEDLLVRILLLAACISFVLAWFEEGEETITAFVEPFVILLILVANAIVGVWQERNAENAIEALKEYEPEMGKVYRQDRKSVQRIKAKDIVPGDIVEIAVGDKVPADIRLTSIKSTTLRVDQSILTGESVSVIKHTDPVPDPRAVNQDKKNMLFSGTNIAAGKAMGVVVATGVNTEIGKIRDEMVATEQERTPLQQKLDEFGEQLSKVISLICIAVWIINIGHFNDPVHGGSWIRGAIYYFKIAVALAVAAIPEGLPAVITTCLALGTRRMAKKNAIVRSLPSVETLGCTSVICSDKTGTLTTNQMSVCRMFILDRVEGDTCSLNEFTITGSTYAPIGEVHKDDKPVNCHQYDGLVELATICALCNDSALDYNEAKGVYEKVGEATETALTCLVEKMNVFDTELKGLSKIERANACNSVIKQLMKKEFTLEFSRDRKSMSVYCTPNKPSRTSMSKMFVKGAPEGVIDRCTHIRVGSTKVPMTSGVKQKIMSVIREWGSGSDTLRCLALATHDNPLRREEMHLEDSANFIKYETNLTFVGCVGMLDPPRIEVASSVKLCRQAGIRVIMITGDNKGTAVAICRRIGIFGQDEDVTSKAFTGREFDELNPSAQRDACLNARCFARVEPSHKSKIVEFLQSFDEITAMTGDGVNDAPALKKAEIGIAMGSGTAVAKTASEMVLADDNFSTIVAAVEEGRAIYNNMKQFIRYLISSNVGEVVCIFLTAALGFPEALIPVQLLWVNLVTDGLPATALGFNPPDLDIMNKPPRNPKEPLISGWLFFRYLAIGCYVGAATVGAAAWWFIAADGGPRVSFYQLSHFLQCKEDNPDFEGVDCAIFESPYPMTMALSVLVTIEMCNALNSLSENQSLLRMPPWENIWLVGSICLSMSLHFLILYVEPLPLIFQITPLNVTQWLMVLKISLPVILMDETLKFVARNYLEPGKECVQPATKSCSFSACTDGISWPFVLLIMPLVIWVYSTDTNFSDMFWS
UniProt P23634: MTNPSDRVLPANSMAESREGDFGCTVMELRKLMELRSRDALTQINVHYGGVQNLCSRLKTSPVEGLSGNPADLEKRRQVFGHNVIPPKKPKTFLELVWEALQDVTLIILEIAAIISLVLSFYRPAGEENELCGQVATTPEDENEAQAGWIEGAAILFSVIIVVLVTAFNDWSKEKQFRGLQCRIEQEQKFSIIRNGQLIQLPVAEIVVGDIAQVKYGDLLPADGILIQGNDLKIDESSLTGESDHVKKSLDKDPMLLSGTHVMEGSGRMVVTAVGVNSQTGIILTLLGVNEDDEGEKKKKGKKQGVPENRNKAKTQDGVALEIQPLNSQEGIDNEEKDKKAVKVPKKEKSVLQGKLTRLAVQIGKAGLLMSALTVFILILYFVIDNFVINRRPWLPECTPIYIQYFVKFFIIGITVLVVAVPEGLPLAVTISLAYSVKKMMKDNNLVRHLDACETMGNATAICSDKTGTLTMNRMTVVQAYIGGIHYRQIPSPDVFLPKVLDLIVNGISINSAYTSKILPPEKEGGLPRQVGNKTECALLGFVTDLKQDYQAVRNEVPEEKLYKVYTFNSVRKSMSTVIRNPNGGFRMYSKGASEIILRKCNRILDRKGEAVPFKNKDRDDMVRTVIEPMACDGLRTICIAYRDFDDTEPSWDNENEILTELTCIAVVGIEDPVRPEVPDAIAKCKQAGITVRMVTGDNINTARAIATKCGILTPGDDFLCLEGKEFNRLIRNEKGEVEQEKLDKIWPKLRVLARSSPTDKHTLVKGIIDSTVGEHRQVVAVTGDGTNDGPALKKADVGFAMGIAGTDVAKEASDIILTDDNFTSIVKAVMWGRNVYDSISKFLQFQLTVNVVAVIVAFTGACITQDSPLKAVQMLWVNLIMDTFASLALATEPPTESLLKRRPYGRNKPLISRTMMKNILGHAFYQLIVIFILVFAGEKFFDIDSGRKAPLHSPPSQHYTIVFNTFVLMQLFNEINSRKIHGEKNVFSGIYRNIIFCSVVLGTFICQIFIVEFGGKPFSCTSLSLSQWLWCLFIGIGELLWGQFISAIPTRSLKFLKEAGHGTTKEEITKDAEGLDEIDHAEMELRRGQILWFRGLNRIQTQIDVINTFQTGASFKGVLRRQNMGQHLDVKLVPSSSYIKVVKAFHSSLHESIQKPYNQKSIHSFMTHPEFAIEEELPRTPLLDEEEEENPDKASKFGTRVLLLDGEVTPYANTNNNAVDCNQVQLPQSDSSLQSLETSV
UniProt Q9Y2G3: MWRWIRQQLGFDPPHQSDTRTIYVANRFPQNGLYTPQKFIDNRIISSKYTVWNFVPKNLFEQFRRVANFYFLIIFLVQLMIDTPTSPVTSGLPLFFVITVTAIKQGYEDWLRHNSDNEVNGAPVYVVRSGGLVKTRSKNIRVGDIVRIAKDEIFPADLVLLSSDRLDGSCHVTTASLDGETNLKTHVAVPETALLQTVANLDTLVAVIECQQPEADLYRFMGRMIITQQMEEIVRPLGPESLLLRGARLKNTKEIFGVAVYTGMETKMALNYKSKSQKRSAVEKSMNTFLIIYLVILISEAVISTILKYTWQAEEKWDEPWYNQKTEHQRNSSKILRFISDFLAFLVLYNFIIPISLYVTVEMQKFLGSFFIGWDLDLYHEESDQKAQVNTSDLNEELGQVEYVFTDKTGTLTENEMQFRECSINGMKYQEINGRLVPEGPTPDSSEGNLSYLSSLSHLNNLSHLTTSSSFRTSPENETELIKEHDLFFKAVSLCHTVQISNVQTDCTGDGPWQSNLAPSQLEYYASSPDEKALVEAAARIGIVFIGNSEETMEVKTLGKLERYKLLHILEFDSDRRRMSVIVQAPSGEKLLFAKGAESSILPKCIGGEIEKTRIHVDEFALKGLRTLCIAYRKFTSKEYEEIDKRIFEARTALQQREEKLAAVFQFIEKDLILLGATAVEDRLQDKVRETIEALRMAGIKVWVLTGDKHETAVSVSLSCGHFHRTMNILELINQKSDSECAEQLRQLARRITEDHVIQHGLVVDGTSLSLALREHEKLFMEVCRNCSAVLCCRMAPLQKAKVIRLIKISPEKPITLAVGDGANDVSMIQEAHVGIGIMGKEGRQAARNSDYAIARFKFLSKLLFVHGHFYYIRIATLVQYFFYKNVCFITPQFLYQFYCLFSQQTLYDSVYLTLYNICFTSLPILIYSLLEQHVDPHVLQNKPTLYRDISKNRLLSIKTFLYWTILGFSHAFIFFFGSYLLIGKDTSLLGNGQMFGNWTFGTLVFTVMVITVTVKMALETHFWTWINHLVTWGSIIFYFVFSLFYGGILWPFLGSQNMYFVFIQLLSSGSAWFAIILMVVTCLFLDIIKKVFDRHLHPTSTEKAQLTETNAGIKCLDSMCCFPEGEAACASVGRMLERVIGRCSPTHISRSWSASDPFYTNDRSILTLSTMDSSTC
UniProt Q9Y4P1: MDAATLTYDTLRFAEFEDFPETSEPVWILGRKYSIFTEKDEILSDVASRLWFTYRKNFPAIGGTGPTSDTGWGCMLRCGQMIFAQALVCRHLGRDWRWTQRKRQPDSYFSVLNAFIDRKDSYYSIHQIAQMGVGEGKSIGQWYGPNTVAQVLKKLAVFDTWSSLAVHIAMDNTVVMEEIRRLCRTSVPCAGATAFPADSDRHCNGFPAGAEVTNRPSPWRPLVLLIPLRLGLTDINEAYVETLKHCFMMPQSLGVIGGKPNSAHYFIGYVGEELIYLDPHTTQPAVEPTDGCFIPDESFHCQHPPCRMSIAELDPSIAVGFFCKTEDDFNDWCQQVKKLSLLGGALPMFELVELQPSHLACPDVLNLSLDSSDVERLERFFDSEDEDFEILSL
UniProt Q8N5M1: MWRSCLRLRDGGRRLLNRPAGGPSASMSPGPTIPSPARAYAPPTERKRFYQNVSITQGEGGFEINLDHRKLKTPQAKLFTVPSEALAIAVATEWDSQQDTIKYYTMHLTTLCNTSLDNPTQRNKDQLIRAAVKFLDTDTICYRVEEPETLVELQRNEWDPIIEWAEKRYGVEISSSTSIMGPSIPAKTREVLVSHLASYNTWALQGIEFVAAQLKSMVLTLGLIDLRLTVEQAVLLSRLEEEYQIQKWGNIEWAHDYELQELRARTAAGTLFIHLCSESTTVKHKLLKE
UniProt Q6PL18: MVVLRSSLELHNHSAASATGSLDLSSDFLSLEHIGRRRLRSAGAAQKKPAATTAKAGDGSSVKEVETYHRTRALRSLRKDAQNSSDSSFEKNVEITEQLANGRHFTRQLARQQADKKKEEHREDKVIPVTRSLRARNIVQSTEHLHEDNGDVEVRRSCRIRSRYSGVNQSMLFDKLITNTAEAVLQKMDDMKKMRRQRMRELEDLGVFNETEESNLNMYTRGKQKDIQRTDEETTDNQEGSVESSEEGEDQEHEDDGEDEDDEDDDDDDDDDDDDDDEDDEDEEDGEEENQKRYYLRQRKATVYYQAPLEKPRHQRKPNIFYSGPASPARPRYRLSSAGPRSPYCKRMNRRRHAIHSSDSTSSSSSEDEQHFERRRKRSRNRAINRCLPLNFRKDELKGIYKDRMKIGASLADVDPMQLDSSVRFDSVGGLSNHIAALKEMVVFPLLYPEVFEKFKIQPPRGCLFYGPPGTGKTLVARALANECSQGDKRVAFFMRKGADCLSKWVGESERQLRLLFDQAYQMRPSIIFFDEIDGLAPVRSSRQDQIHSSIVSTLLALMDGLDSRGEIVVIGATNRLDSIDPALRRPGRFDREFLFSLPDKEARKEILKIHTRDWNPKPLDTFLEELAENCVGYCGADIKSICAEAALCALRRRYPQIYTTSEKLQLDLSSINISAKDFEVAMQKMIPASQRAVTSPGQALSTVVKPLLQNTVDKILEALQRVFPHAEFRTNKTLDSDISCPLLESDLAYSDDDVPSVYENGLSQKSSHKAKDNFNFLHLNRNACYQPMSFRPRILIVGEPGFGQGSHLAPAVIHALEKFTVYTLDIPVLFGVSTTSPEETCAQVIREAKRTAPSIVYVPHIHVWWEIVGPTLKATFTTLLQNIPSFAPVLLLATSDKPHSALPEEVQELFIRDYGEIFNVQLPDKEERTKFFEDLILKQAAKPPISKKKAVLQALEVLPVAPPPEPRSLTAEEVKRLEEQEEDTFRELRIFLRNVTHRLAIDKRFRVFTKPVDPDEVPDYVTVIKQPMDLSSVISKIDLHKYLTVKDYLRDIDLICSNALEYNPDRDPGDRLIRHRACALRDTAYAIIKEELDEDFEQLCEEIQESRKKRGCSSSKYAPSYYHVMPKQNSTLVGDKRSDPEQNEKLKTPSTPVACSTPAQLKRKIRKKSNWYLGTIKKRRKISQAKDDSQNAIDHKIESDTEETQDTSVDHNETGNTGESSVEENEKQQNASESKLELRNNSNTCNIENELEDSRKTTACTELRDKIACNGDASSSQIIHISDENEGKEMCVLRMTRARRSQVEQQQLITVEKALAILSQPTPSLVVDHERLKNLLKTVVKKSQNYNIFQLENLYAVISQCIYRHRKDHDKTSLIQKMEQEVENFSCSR
UniProt P31939: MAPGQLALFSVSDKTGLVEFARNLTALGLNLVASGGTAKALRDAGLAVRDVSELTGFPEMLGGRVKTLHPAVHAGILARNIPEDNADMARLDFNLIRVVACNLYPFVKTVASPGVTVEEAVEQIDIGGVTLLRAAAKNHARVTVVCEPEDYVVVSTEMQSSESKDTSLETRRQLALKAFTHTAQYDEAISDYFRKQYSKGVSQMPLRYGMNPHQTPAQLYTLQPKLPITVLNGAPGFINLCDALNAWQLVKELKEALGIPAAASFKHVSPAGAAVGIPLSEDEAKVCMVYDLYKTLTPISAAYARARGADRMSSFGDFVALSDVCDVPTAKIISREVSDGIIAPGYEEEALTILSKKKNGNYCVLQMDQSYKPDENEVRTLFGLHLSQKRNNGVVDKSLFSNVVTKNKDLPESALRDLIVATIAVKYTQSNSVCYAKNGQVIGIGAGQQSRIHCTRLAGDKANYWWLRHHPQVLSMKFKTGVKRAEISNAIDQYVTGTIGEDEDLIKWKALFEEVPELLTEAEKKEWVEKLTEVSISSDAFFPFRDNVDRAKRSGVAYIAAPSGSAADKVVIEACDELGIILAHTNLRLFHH

compound: Cc1cc(ccc1-c1ccccc1)C(=O)N1CCCN(CC1)C(=O)CCl [compound 10]; test: probe-labelled cysteine peptide fold change vs DMSO (competition) (log2 fold change); higher = less target engagement (more negative = stronger competition); conditions: 10 µM; THP-1; incubation time: 4 h
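Further: competitive profiling in live THP-1 cells: cysteine peptides tagged with an iodoacetamide desthiobiotin (IA-DTB) probe, intensity after compound treatment relative to DMSO-treated cells.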

Row | Target | probe-labelled cysteine peptide fold change
1 | ATG9A_Q7Z3C6_122_VTLPDAFLPAQVCSAR (UniProt Q7Z3C6) | 0.167
2 | ATP6V1B2_P21281_425_KDHADVSNQLYACYAIGK (UniProt P21281) | -0.0734
3 | ATP1A1_P05023_211_IISANGCK (UniProt P05023) | -0.646
4 | ASCC3_Q8N3C0_742_NCGHIPFFFPTQGHDYVLAEK (UniProt Q8N3C0) | 0.0317
5 | ATG3_Q9NT62_259+264_TVTIENHPHLPPPPMCSVHPCR (UniProt Q9NT62) | -0.121
6 | ATP2A2_P16615_669_DACLNAR (UniProt P16615) | -0.128
7 | ATP2B4_P23634_632_TVIEPMACDGLR (UniProt P23634) | -0.0204
8 | ATP6V1H_Q9UI12_226_FAWVEADGVNCIMGVLSNK (UniProt Q9UI12) | 0.158
9 | ASNA1_O43681_55_TTCSCSLAVQLSK (UniProt O43681) | 0.15
10 | ATM_Q13315_790_CLSNCTK (UniProt Q13315) | 0.0221
11 | ARRB2_P32121_126_LGQHAHPFFFTIPQNLPCSVTLQPGPEDTGK (UniProt P32121) | -0.00989
12 | ATP11B_Q9Y2G3_422_ECSINGMK (UniProt Q9Y2G3) | -0.1
13 | ATP6V0A2_Q9Y487_244_ICDCYHCHVYPYPNTAEER (UniProt Q9Y487) | -0.0298
14 | ATP1A1_P05023_374_NLEAVETLGSTSTICSDK (UniProt P05023) | -0.155
15 | ATRX_P46100_1576_LKPHQVDGVQFMWDCCCESVK (UniProt P46100) | -0.0106
16 | ATG7_O95352_298_LPEMAFSPDCPK (UniProt O95352) | -0.204
17 | ATP2B4_P23634_55_DALTQINVHYGGVQNLCSR (UniProt P23634) | -0.261
18 | ATP13A1_Q9HD20_969_LSSIQCICHVIK (UniProt Q9HD20) | -0.0153
19 | ATG4B_Q9Y4P1_323_MSIAELDPSIAVGFFCK (UniProt Q9Y4P1) | 0.15
20 | ATPAF2_Q8N5M1_276_TAAGTLFIHLCSESTTVK (UniProt Q8N5M1) | 0.0286

Row | Target | probe-labelled cysteine peptide fold change
21 | ASTE1_Q2TB18_640_QNTSCSK (UniProt Q2TB18) | -0.306
22 | ASPSCR1_Q9BZE9_127+138_ECLQHPGGATPVCVYTR (UniProt Q9BZE9) | -0.0868
23 | ATP13A1_Q9HD20_13+18_AAAAAVGNAVPCGARPCGVRPDGQPK (UniProt Q9HD20) | -0.44
24 | ATP5F1A_P25705_244_KLYCIYVAIGQK (UniProt P25705) | -1.08
25 | ATG4B_Q9Y4P1_333_TEDDFNDWCQQVK (UniProt Q9Y4P1) | -0.122
26 | ATRIP_Q8WXE1_585_FQCVFQVLPK (UniProt Q8WXE1) | -0.0711
27 | ATG4B_Q9Y4P1_189_TSVPCAGATAFPADSDR (UniProt Q9Y4P1) | 0.00721
28 | ATM_Q13315_1495_SFSLCCDLLSQVCQTAVTYCK (UniProt Q13315) | 0.0614
29 | ATG7_O95352_358+368_CLLLGAGTLGCNVAR (UniProt O95352) | 0.136
30 | ATG7_O95352_368_CLLLGAGTLGCNVAR (UniProt O95352) | 0.0907
31 | ASS1_P00966_97_YLLGTSLARPCIAR (UniProt P00966) | -0.131
32 | ATRX_P46100_605_GADCQEVPQDK (UniProt P46100) | -0.461
33 | ATP1A1_P05023_518_CSSILLHGK (UniProt P05023) | -0.0171
34 | ATP2A2_P16615_560_CLALATHDNPLRR (UniProt P16615) | 0.117
35 | ATP6V0D1_P61421_39_AGVLSQADYLNLVQCETLEDLK (UniProt P61421) | 0.0989
36 | ATAD2_Q6PL18_649_SICAEAALCALR (UniProt Q6PL18) | -0.0977
37 | ATIC_P31939_146_VTVVCEPEDYVVVSTEMQSSESK (UniProt P31939) | -0.00853
38 | ATP2A2_P16615_498_SMSVYCTPNKPSR (UniProt P16615) | 0.0361
39 | ATP13A1_Q9HD20_410_ATTGLKPVDSGCVAYVLR (UniProt Q9HD20) | 0.133

same assay, conditions: 50 µM; THP-1; incubation time: 4 h

Row | Target | probe-labelled cysteine peptide fold change
40 | ATG9A_Q7Z3C6_122_VTLPDAFLPAQVCSAR (UniProt Q7Z3C6) | 0.186
41 | ATP6V1B2_P21281_425_KDHADVSNQLYACYAIGK (UniProt P21281) | -0.029
42 | ATP1A1_P05023_211_IISANGCK (UniProt P05023) | -0.287
43 | ASCC3_Q8N3C0_742_NCGHIPFFFPTQGHDYVLAEK (UniProt Q8N3C0) | 0.122
44 | ATG3_Q9NT62_259+264_TVTIENHPHLPPPPMCSVHPCR (UniProt Q9NT62) | -0.716
45 | ATP2A2_P16615_669_DACLNAR (UniProt P16615) | -0.193
46 | ATP2B4_P23634_632_TVIEPMACDGLR (UniProt P23634) | -0.262
47 | ATP6V1H_Q9UI12_226_FAWVEADGVNCIMGVLSNK (UniProt Q9UI12) | 0.427
48 | ASNA1_O43681_55_TTCSCSLAVQLSK (UniProt O43681) | -0.0955
49 | ATM_Q13315_790_CLSNCTK (UniProt Q13315) | -0.274
50 | ARRB2_P32121_126_LGQHAHPFFFTIPQNLPCSVTLQPGPEDTGK (UniProt P32121) | -0.017
51 | ATP11B_Q9Y2G3_422_ECSINGMK (UniProt Q9Y2G3) | -0.176
52 | ATP6V0A2_Q9Y487_244_ICDCYHCHVYPYPNTAEER (UniProt Q9Y487) | 0.367
53 | ATP1A1_P05023_374_NLEAVETLGSTSTICSDK (UniProt P05023) | 0.0239
54 | ATRX_P46100_1576_LKPHQVDGVQFMWDCCCESVK (UniProt P46100) | 0.0331
55 | ATG7_O95352_298_LPEMAFSPDCPK (UniProt O95352) | -0.0664
56 | ATP2B4_P23634_55_DALTQINVHYGGVQNLCSR (UniProt P23634) | 0.162
57 | ATP13A1_Q9HD20_969_LSSIQCICHVIK (UniProt Q9HD20) | -0.325
58 | ATG4B_Q9Y4P1_323_MSIAELDPSIAVGFFCK (UniProt Q9Y4P1) | -0.0742
59 | ATPAF2_Q8N5M1_276_TAAGTLFIHLCSESTTVK (UniProt Q8N5M1) | 0.215

Row | Target | probe-labelled cysteine peptide fold change
60 | ASTE1_Q2TB18_640_QNTSCSK (UniProt Q2TB18) | -0.653
61 | ASPSCR1_Q9BZE9_127+138_ECLQHPGGATPVCVYTR (UniProt Q9BZE9) | -0.296
62 | ATP13A1_Q9HD20_13+18_AAAAAVGNAVPCGARPCGVRPDGQPK (UniProt Q9HD20) | -0.541
63 | ATP5F1A_P25705_244_KLYCIYVAIGQK (UniProt P25705) | 0.236
64 | ATG4B_Q9Y4P1_333_TEDDFNDWCQQVK (UniProt Q9Y4P1) | -0.037
65 | ATRIP_Q8WXE1_585_FQCVFQVLPK (UniProt Q8WXE1) | -0.117
66 | ATG4B_Q9Y4P1_189_TSVPCAGATAFPADSDR (UniProt Q9Y4P1) | -0.338
67 | ATM_Q13315_1495_SFSLCCDLLSQVCQTAVTYCK (UniProt Q13315) | -0.0028
68 | ATG7_O95352_358+368_CLLLGAGTLGCNVAR (UniProt O95352) | 0.22
69 | ATG7_O95352_368_CLLLGAGTLGCNVAR (UniProt O95352) | 0.527
70 | ASS1_P00966_97_YLLGTSLARPCIAR (UniProt P00966) | -0.067
71 | ATRX_P46100_605_GADCQEVPQDK (UniProt P46100) | -0.179
72 | ATP1A1_P05023_518_CSSILLHGK (UniProt P05023) | -0.0166
73 | ATP2A2_P16615_560_CLALATHDNPLRR (UniProt P16615) | 0.0483
74 | ATP6V0D1_P61421_39_AGVLSQADYLNLVQCETLEDLK (UniProt P61421) | 0.206
75 | ATAD2_Q6PL18_649_SICAEAALCALR (UniProt Q6PL18) | 0.142
76 | ATIC_P31939_146_VTVVCEPEDYVVVSTEMQSSESK (UniProt P31939) | 0.073
77 | ATP2A2_P16615_498_SMSVYCTPNKPSR (UniProt P16615) | -0.101
78 | ATP13A1_Q9HD20_410_ATTGLKPVDSGCVAYVLR (UniProt Q9HD20) | 0.0894
